Measurements as given in article PMC4682425.
No constants are given. Whether binding was seen depends on the method and setting. Binding can be weak; no strength is given. For some of these results: In cells and extracts the contact can be indirect.

Legend:
[1] = target: OsCYP19-4 mature protein (amino acids 29-208), yeast two-hybrid bait (Oryza sativa ssp. japonica); test: two-hybrid; pGBK7 constructs (CYPs) and pGADT7 constructs (AtRCN1, AtGNOM-F, AtGNOM-N) co-transformed in yeast AH109; growth on SD/-WLH + 1.5 mM 3-AT; empty pGADT7 as negative control
[2] = target: OsCYP20-1 mature protein (amino acids 40-220), yeast two-hybrid bait (Oryza sativa); test: as above
[3] = target: OsCYP20-1 full length, BiFC construct in pSPYNE-35S (Oryza sativa); test: split reporter; BiFC: CYPs in pSPYNE-35S and AtRCN1 in pSPYCE-35S co-infiltrated with the P19 silencing suppressor into 4-week-old N. benthamiana leaves; yellow fluorescent protein fluorescence at 24-48 h post-infiltration, confocal microscopy
[4] = target: OsCYP19-4 full length, BiFC construct in pSPYNE-35S (Oryza sativa ssp. japonica); test: as above

B1: AtRCN1 full-length coding region, yeast two-hybrid prey (protein, UniProt Q38845 1-588)
chain: MAMVDEPLYPIAVLIDELKNDDIQLRLNSIRRLSTIARALGEERTRKELIPFLSENSDDDDEVLLAMAEELGVFIPFVGGIEFAHVLLPPLESLCTVEETCVREKAVESLCKIGSQMKENDLVESFVPLVKRLAGGEWFAARVSACGIFHVAYQGCTDVLKTELRATYSQLCKDDMPMVRRAAASNLGKFATTVESTFLIAEIMTMFDDLTKDDQDSVRLLAVEGCAALGKLLEPQDCVARILPVIVNFSQDKSWRVRYMVANQLYELCEAVGPDCTRTDLVPAYVRLLRDNEAEVRIAAAGKVTKFCRLLNPELAIQHILPCVKELSSDSSQHVRSALASVIMGMAPILGKDSTIEHLLPIFLSLLKDEFPDVRLNIISKLDQVNQVIGIDLLSQSLLPAIVELAEDRHWRVRLAIIEYVPLLASQLGIGFFDDKLGALCMQWLQDKVYSIREAAANNLKRLAEEFGPEWAMQHLVPQVLDMVNNPHYLHRMMVLRAISLMAPVMGSEITCSKFLPVVVEASKDRVPNIKFNVAKLLQSLIPIVDQSVVDKTIRQCLVDLSEDPDVDVRYFANQALNSIDGSTAAQS
binding [1]: binds
binding [2]: binds

B2: AtRCN1, BiFC construct in pSPYCE-35S (protein, UniProt Q38845 1-588)
chain: B1 chain
binding [3]: binds
binding [4]: binds
